Record: PubChem BioAssay AID504791 (Drosophila RNAi Screening Center, 2011)
Assay: 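Factors in Argonaute-based small RNA production and activity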 (primary screen). Cell system: Drosophila S2-derived reporter cells. Knock-down reagent: long dsRNA against Drosophila genes, about 150-250 ng dsRNA per well (siRNA assay); about 80-120 ng (miRNA assay). Duration: about 5 days (siRNA assay); about 4 days (miRNA assay). Conditions: copper sulfate induction of reporters: 25 µM (siRNA assay); 200 mM stated (miRNA assay), 1-2 days before reading. Read-out: 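Per-well ratio of Renilla over firefly light, expressed relative to that plate's average ratio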. Rule for the call: 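a well was a first-pass pick when its plate-scaled ratio rose above 1.5 (siRNA assay) or 1.6 (miRNA assay), or dropped below 0.6; a gene counted only if two separate dsRNAs agreed on retest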.
The screen tested about 23,000 reagents; this is a random part of those that have a named target and a result. Of all reagents, 199 (0.86%) were called active. 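Plate-scaled ratios behind the calls are not deposited; printed light signals are raw; many rows marked increased or decreased are still called inactive.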 Entries without a mark were called inactive. Reagents against one gene are numbered here. Names joined by + are all predicted targets of the reagent. No sequences are given here. The record does not give: the direction of the score.

{"target gene": "CG2790 (GeneID 37992)", "dsRNA no.": 1, "stable assay Renilla, run 1 (luminescence)": 43229, "stable assay firefly, run 1 (luminescence)": 8.82e5}
{"target gene": "mRpS28 (GeneID 37136)", "dsRNA no.": 1, "stable assay Renilla, run 1 (luminescence)": 5712, "stable assay firefly, run 1 (luminescence)": 3.32e5}
{"target gene": "CG14434 (GeneID 31632)", "dsRNA no.": 1, "stable assay Renilla, run 1 (luminescence)": 5767, "stable assay firefly, run 1 (luminescence)": 3.51e5}
{"target gene": "CG17105 (GeneID 34466)", "dsRNA no.": 1, "stable assay Renilla, run 1 (luminescence)": 7022, "stable assay firefly, run 1 (luminescence)": 4.49e5}
{"target gene": "Gem4b + Gem4c", "dsRNA no.": 1, "stable assay Renilla, run 1 (luminescence)": 6236, "stable assay firefly, run 1 (luminescence)": 3.53e5}
{"target gene": "Polr1E (GeneID 42201)", "dsRNA no.": 1, "stable assay Renilla, run 1 (luminescence)": 6446, "stable assay firefly, run 1 (luminescence)": 3.11e5}
{"target gene": "Polr1E (GeneID 42201)", "dsRNA no.": 2, "stable assay Renilla, run 1 (luminescence)": 10030, "stable assay firefly, run 1 (luminescence)": 4.30e5}
{"target gene": "Pgm1 (GeneID 44010)", "dsRNA no.": 1, "stable assay Renilla, run 1 (luminescence)": 8315, "stable assay firefly, run 1 (luminescence)": 2.82e5}
{"target gene": "fog (GeneID 33148)", "dsRNA no.": 1, "stable assay Renilla, run 1 (luminescence)": 7655, "stable assay firefly, run 1 (luminescence)": 6.13e5}

2 entries from above, reduced to “stable assay Renilla, run 1 (luminescence)”.
CG17105 (GeneID 34466): 7022
Gem4b + Gem4c: 6236

The results go on.
{"target gene": "Spn28Db (GeneID 326261)", "dsRNA no.": 1, "stable assay Renilla, run 1 (luminescence)": 9326, "stable assay firefly, run 1 (luminescence)": 7.30e5}
{"target gene": "Pat1 (GeneID 31593)", "dsRNA no.": 1, "stable assay Renilla, run 1 (luminescence)": 8487, "stable assay firefly, run 1 (luminescence)": 4.69e5}
{"target gene": "Mlp60A (GeneID 37853)", "dsRNA no.": 1, "stable assay Renilla, run 1 (luminescence)": 5294, "stable assay firefly, run 1 (luminescence)": 4.38e5}
{"target gene": "Mlp60A (GeneID 37853)", "dsRNA no.": 2, "stable assay Renilla, run 1 (luminescence)": 10354, "stable assay firefly, run 1 (luminescence)": 5.10e5}
{"target gene": "Mlp60A (GeneID 37853)", "dsRNA no.": 3, "stable assay Renilla, run 1 (luminescence)": 2340, "stable assay firefly, run 1 (luminescence)": 2.58e5}
